PubChem BioAssay AID1259254 | NCATS | 2017

Purpose: 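Gene knock-downs that lead to re-replication, shown by excess G2 DNA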 (primary screen)
Cells: human HCT116 colorectal cancer cells
Reagent: single siRNA against human genes
Time to read-out: 3 days
Measured: 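Imaged Hoechst DNA stain sorts each cell into a cycle phase by DNA amount; per plate, G2 fraction set to 0% for non-targeting and 100% for GMNN siRNA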
Scale: G2 robust z-score: higher = more G2 cells, more excess DNA replication
Active means: 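Active siRNAs have a G2 robust z of 5 or more median absolute deviations over the median, which in these data means about 38% or higher of GMNN control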
The whole screen tested about 59,000 reagents; below is a part drawn at random. Over the whole deposit, about 1,550 (2.6%) got an active call. 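G2 share is only a proxy for re-replication; each gene was hit by three separate siRNAs, and active genes were retested.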 A number with no mark means an inactive call. Further read-outs or replicates are left out here. No sequences are given here. The record does not give: the amount of reagent.

Which result is listed for UHRF1 [SID160739136]?
G2 robust z-score: -0.608

With UHRF1 [SID160739137], what was measured?
G2 robust z-score: -1.11

What is on record for UHRF1 [SID160739138]?
G2 robust z-score: -0.528

What did the screen give for GLT1D1 [SID160758151]?
G2 robust z-score: -0.744

How did the screen score GLT1D1 [SID160758152]?
G2 robust z-score: -0.0489

What did the screen give for GLT1D1 [SID160758153]?
G2 robust z-score: -0.919

How did the screen score CHDH [SID160743608]?
G2 robust z-score: -1.36

What is on record for CHDH [SID160743609]?
G2 robust z-score: -0.0618

What is on record for CHDH [SID160743612]?
G2 robust z-score: 0.173

What is on record for ITGAV [SID160775989]?
G2 robust z-score: 11.7 (active)

What is on record for ITGAV [SID160775990]?
G2 robust z-score: 12.5 (active)

For ITGAV [SID160775992], what does the deposit list?
G2 robust z-score: 8.64 (active)
